Experiment [1] has as its target GST-tagged E1 domain of APP (UniProt P05067). The experiment is described as follows: pull-down; immobilised GST-tagged APP ectodomain fragments exposed to lysates of CHO cells expressing V5-tagged Syt-1, -2 or -9; Western blot with anti-V5; only the target purified.
The target of experiment [2] is GST-tagged E2 domain of APP (UniProt P05067). Described as above.
The next experiment has as its target V5-tagged Syt-1 (UniProt P21579). The experiment can be described thus: co-IP; CHO cells stably transfected with APP695, transiently transfected with V5-tagged Syt-1 or Syt-9; IP with anti-V5, control IgG; Western blot.
Experiment [3] addresses APP (endogenous, PC12 cells) (rat (endogenous in PC12)) (UniProt P08592). The experiment can be described thus: proximity ligation; in situ PLA (Duolink) in fixed naive PC12 cells with rabbit anti-APP (C66) and mouse anti-Syt-1; negative control with only one primary antibody.

The chains behind the UniProt entries cited, without tags or fusion partners. Residues count along the entry.
UniProt P21579: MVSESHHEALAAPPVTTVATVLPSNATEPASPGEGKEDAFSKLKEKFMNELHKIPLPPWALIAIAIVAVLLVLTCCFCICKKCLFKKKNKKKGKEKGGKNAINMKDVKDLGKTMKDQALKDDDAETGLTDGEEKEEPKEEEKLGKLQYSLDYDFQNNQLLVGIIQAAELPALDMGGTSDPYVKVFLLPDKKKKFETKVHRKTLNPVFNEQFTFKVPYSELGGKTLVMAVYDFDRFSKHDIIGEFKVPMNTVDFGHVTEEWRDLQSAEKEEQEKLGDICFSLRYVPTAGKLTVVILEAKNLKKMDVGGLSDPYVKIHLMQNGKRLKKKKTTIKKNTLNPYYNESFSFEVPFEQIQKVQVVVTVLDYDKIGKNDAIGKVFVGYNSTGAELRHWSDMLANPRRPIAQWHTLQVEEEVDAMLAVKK
UniProt P08592, residues 18-770: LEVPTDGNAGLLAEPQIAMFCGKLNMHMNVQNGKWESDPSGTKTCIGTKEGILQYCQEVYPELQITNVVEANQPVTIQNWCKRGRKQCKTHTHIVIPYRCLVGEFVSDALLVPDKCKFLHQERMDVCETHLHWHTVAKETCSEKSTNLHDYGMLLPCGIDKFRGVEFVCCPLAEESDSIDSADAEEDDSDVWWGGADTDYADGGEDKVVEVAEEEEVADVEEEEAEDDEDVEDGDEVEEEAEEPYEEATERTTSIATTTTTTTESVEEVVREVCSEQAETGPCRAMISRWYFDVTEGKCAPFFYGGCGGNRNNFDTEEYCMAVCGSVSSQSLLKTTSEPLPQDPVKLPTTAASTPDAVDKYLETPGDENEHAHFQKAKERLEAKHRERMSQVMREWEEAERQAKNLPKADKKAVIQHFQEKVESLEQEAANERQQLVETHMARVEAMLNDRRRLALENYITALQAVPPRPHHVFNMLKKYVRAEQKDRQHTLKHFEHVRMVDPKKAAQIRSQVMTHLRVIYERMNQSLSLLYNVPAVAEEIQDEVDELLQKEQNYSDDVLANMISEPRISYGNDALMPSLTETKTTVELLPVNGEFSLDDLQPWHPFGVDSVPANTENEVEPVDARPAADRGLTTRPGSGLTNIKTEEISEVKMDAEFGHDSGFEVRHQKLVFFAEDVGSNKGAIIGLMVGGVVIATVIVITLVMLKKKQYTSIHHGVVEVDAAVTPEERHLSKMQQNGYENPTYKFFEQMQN
UniProt P21707: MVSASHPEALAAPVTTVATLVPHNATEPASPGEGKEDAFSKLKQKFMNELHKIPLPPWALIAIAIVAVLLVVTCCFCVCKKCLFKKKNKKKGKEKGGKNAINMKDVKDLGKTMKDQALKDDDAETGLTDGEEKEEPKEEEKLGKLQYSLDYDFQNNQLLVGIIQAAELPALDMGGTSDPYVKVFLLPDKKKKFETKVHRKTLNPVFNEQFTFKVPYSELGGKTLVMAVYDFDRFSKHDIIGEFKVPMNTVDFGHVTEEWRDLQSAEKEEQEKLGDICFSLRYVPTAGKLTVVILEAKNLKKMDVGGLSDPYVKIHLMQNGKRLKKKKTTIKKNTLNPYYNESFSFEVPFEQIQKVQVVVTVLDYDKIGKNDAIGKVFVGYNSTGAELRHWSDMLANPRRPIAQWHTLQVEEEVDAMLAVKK

These are yes or no findings as the source states them, for the method shown. In cells and extracts the contact can be indirect. Some results given as binding are weak or reduced against the parent protein; the word gives no strength.

For the substance “V5-tagged Syt-1 (from UniProt P21579 1-422)”, the binding entry in experiment [1] and in experiment [2] was “no binding” each time.

On to “APP695 isoform stably expressed in CHO cells (from UniProt P05067-4 18-695)”, for which the binding entry with V5-tagged Syt-1 is on record as “binds”.

Turning to “Syt-1 (endogenous, PC12 cells) (from UniProt P21707 1-421)”, in experiment [3], the binding entry was “binds”.

The values above are taken from PMC4511450.
